These results are taken from the supplement of paper PMC10849652.

Amino acid sequences for entries named in this document (tags omitted). A change or cut given only in a name is not applied to a line headed by its entry.
UniProt P06730, whole entry, looked up: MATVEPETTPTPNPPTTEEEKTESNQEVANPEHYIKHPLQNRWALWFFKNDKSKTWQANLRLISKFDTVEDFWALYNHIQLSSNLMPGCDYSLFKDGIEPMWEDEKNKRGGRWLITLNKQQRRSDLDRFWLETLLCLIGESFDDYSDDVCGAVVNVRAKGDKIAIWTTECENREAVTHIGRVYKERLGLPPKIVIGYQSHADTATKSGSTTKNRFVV
UniProt P41567, whole entry, looked up: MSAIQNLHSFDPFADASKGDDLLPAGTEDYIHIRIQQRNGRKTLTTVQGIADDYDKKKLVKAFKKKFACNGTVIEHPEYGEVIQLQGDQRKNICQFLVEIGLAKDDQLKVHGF
UniProt P60842, whole entry, looked up: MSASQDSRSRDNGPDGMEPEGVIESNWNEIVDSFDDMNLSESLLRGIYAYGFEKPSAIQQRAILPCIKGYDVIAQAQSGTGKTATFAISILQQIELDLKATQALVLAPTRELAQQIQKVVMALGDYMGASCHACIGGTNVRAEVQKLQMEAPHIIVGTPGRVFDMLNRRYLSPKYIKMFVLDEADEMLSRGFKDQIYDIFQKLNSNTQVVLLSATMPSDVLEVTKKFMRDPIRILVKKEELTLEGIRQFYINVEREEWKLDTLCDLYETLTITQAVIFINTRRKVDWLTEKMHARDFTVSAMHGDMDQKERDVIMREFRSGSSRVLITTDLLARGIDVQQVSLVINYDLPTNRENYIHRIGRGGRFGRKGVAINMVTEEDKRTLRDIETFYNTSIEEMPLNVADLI
UniProt Q9GZT9: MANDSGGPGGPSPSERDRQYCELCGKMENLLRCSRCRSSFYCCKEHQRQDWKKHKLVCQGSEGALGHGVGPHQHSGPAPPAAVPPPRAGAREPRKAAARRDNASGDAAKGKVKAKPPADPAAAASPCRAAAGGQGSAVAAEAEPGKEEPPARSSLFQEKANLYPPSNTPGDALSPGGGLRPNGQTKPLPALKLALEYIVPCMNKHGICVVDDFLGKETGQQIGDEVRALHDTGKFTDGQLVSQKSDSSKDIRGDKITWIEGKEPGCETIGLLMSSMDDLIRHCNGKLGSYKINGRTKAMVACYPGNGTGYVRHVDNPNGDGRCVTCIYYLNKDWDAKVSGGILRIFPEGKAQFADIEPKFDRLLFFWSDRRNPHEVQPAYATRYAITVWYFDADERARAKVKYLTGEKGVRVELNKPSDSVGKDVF
UniProt Q14232, whole entry, looked up: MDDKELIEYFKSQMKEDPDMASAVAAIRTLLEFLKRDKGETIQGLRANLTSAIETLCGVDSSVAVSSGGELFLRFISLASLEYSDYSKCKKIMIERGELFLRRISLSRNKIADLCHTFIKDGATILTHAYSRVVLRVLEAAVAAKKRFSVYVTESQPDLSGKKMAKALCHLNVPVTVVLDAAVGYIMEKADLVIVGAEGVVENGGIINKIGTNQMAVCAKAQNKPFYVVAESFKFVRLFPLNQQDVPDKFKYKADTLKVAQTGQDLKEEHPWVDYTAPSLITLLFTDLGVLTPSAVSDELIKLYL
UniProt Q8N3D4: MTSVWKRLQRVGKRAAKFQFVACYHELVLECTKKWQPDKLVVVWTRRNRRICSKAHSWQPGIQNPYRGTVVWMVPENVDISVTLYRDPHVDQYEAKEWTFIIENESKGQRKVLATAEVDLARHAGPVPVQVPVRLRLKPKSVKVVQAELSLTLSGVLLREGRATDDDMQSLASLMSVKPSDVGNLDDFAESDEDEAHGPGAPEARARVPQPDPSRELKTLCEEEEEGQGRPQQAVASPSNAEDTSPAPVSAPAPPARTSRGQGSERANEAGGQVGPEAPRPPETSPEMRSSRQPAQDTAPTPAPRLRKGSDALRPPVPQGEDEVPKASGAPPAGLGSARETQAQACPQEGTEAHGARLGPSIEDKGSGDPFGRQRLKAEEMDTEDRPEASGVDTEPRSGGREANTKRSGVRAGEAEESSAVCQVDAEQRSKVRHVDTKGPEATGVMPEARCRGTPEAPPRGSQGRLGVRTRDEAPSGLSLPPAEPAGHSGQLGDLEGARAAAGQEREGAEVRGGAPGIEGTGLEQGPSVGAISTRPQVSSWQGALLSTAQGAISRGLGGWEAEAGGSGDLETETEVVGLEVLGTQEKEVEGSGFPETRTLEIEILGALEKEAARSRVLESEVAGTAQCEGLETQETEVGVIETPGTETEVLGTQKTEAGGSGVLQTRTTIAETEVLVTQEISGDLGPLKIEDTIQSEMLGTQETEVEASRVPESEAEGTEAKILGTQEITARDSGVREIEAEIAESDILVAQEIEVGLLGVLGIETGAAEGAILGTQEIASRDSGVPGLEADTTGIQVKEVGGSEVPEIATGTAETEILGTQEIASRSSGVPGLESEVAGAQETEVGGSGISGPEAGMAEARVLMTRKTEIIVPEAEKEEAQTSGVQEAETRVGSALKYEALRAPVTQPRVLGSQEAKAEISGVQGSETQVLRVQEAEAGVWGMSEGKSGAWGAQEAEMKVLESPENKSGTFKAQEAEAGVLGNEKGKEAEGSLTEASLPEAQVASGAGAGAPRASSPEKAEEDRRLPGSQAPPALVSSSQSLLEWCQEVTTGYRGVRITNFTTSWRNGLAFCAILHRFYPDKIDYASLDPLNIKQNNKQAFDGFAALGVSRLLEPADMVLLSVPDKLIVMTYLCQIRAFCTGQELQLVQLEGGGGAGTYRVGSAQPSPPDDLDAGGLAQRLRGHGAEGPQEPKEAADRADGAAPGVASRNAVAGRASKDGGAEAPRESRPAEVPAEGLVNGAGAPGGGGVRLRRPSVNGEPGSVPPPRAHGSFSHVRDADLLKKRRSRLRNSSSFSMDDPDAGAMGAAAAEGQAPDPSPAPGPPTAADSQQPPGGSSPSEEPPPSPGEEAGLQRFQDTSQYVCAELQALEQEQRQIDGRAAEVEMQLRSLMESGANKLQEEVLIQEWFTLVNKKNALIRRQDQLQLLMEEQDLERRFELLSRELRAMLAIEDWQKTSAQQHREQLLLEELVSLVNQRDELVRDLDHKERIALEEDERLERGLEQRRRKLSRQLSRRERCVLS
UniProt O43402: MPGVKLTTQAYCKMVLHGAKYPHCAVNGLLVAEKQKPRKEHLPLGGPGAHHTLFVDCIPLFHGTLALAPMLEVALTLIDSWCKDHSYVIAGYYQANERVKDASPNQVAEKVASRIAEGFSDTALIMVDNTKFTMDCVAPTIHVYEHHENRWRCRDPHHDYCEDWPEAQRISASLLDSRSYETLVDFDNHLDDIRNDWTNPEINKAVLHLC
UniProt Q15369, whole entry, looked up: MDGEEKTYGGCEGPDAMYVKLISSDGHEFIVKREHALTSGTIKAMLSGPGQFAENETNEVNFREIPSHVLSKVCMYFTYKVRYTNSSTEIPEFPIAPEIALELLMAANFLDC
UniProt Q96C19: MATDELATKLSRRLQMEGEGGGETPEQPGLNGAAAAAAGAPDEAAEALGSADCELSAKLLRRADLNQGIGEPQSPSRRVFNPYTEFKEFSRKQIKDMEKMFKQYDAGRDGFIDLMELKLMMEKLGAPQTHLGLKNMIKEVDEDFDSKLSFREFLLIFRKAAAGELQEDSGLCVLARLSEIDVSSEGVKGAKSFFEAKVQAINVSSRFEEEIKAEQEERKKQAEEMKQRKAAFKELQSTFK
UniProt O75071: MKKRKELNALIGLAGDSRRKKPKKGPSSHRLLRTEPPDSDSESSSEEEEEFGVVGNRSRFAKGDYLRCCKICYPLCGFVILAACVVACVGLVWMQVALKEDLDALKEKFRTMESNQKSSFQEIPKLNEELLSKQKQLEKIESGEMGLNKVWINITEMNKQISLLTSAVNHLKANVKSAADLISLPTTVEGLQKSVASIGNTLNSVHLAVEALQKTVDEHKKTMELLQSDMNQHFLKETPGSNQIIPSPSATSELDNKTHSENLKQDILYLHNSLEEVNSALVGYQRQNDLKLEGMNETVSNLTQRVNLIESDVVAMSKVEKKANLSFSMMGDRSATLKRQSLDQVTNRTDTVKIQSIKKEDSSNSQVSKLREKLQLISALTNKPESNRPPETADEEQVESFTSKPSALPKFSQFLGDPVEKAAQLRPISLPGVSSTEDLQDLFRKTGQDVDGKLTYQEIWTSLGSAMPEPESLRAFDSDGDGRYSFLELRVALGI
UniProt P24534: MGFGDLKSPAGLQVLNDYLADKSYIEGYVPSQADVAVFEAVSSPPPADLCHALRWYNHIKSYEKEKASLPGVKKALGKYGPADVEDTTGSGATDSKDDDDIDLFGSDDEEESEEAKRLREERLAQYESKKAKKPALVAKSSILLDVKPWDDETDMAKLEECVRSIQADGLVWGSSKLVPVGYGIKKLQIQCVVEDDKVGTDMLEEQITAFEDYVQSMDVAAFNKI
UniProt Q7Z2Z2: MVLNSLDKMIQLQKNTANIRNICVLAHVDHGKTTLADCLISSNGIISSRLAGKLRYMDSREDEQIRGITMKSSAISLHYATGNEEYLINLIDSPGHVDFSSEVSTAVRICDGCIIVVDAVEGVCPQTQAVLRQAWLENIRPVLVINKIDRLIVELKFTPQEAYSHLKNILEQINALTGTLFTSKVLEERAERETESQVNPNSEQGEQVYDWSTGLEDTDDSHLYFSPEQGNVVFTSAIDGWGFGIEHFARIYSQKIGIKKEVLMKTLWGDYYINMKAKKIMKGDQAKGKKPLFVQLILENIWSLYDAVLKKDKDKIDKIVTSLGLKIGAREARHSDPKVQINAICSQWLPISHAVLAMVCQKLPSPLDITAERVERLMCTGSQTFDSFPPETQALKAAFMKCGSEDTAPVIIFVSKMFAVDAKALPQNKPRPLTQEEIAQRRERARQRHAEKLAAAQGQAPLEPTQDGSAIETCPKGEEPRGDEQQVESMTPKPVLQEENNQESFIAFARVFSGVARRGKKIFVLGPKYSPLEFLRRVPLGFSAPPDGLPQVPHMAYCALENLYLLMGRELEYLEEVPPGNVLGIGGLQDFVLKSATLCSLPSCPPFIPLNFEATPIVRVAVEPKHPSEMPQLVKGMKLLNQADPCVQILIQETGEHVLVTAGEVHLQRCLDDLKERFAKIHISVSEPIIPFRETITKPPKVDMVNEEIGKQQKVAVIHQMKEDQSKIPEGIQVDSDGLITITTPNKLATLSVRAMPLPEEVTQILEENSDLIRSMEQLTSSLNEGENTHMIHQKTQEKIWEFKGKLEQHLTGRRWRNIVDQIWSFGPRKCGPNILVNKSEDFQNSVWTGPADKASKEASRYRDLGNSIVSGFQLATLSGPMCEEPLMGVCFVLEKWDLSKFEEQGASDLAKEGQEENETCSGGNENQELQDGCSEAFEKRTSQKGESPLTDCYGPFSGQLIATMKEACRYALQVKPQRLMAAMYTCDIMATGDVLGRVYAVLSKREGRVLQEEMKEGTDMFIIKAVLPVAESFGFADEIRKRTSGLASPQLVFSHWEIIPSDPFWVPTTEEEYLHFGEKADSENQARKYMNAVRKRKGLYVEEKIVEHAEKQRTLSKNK
UniProt Q8N9N8: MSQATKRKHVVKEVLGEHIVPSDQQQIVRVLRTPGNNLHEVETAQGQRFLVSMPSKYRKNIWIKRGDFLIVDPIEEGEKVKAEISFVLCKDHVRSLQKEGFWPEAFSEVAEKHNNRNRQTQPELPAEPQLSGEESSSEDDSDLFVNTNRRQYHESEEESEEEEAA
UniProt Q9NYP7: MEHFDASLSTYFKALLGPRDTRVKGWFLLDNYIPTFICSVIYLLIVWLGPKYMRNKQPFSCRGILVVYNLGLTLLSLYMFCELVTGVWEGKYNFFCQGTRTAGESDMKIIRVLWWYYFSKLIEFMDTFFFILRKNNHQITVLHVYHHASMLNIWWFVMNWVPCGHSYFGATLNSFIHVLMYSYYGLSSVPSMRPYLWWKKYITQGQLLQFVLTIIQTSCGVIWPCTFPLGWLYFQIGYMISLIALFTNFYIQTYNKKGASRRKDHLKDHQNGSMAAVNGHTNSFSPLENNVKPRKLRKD
UniProt P29692: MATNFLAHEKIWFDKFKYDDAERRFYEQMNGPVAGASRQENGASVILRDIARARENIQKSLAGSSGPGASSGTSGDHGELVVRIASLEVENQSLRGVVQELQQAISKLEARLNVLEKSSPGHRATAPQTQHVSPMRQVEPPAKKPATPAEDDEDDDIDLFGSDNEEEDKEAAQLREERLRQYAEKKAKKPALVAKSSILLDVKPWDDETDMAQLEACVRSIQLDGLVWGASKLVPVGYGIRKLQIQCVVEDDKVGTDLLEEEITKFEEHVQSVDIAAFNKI
UniProt P26641, whole entry, looked up: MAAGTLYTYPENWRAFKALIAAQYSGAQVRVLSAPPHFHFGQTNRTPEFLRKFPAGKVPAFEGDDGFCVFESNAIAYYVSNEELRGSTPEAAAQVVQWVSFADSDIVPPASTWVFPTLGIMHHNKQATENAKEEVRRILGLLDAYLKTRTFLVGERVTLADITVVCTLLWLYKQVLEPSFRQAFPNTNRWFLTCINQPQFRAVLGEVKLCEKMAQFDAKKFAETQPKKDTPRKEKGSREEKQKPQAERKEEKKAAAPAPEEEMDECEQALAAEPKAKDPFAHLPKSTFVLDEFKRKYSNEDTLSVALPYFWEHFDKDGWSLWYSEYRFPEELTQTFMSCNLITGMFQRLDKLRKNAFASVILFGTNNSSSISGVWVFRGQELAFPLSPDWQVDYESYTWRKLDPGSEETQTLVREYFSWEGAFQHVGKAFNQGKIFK

The list shows a part of the results.

Compound in one test: NC(=O)Nc1cc(-c2cccc(F)c2)sc1C(=O)N[C@H]1CCCNC1
Briefly: log2 fold change, soluble protein after heating vs DMSO (PISA); higher = thermal stabilisation; K562 cells, 10 uM, 30 min; active = over 0.2 and 3.5 SD of the protein, either way, in both replicates (recomputed). The method in brief:
(§1)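 Soluble protein was quantified by TMTpro 16plex LC-MS/MS after channel sums were equalised. It was obtained as the supernatant after 21,000xg for 90 min from pooled aliquots of K562 cells (2×10^6 cells/mL, 10 μM compound, 30 min) heated for 3 min across 48°C-58°C and extracted in PBS with 0.5% NP-40 at 4°C. Thermal stability values are relative to control samples and come from duplicates. They are given as log2 fold changes.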
For EIF4E isoform 2 (UniProt P06730), the log2 fold change is inactive: 0.005. Same read-out and setting: as for EIF3I (UniProt Q13347), the figure is inactive: -0.034; as for EED, A0A5F9ZI63, inactive: 0.03; as for EIF3F (UniProt O00303), inactive: 0.127. Same read-out and setting: as for EIF1 (UniProt P41567), the figure is inactive: -0.012; as for ENDOG (UniProt Q14249), inactive: 0.018; as for EIF4G1 isoform 8 (UniProt Q04637), inactive: -0.104. On the same count and under the same terms, in the case of EIF4A1 (UniProt P60842) it was inactive: 0.148; in that of EHD4 (UniProt Q9H223), inactive: -0.022.

EIF3J (UniProt O75822): the log2 fold change was inactive: 0.035.

Compound in another test: NC(=O)c1cnc(N[C@@H]2CCCC[C@@H]2N)nc1Nc1cccc(-n2nccn2)c1
The test is described as above. In outline: as §1
For ELOVL1 (UniProt Q9BW60), the log2 fold change is inactive: -0.191. Consider EGLN1 (UniProt Q9GZT9), for which the log2 fold change was inactive: -0.016. For the target EIF5 (UniProt P55010), the log2 fold change is inactive: -0.002.

EIF2B1 (UniProt Q14232): the log2 fold change is inactive: -0.022. Same read-out and setting: in the case of EHBP1L1 (UniProt Q8N3D4) it was inactive: -0.04; in that of EOGT (UniProt Q5NDL2), inactive: -0.063. For EHD2 (UniProt Q9NZN4), the log2 fold change was inactive: -0.048. Consider EMC8 (UniProt O43402), for which the log2 fold change was inactive: -0.018. The same measure, in the same setting: in the case of EIF4H (UniProt Q15056) it was inactive: 0.004.

For the target EIF2S3 (UniProt P41091), the log2 fold change was inactive: 0.006.

As to EIF5B (UniProt O60841), the log2 fold change was inactive: -0.06. Still for that read-out and setting: as for ELOC (UniProt Q15369), the figure is inactive: -0.011; as for EFHD2 (UniProt Q96C19), inactive: -0.093; as for EFCAB14 (UniProt O75071), inactive: 0.218. Same read-out and setting: as for EEF1B2 (UniProt P24534), the figure is inactive: -0.112; as for EFL1 (UniProt Q7Z2Z2), inactive: -0.023; as for EIF1AD (UniProt Q8N9N8), inactive: -0.09.

For EMD (UniProt P50402), the log2 fold change was inactive: -0.064. Consider ELP1 (UniProt O95163), for which the log2 fold change is inactive: -0.014. In the case of ELOVL5 isoform 2 (UniProt Q9NYP7), the log2 fold change is inactive: 0.001. With EEF1AKNMT (UniProt Q8N6R0), the log2 fold change is inactive: -0.061. Still for that read-out and setting: in the case of EEF1D isoform 2 (UniProt P29692) it was inactive: -0.06; in that of EEF1G isoform 2 (UniProt P26641), inactive: -0.039. On the same count and under the same terms, in the case of EIF4E isoform 2 (UniProt P06730) it was inactive: 0.226; in that of EIF3I (UniProt Q13347), inactive: -0.082; in that of EED, A0A5F9ZI63, inactive: 0.053.

As for EIF3F (UniProt O00303), the log2 fold change was inactive: 0.012. For EIF1 (UniProt P41567), the log2 fold change is inactive: 0.049. In the case of ENDOG (UniProt Q14249), the log2 fold change was inactive: 0.048. As to EIF4G1 isoform 8 (UniProt Q04637), the log2 fold change was inactive: -0.273. Regarding EIF4A1 (UniProt P60842), the log2 fold change is inactive: -0.08. The same measure, in the same setting: in the case of EHD4 (UniProt Q9H223) it was inactive: 0.007; in that of EIF3J (UniProt O75822), inactive: -0.033.
